# Results published in the supplement of paper PMC8728848.
# This is one part of the list.
# B1: Ovorubin (Pomacea canaliculata), J7I2T6 (protein)
# chain: MFVATSLLLAIATLVVRASPHNYLIMDIEPPKSVSERDILNLLSPLQVKHSFRVTGSTRLLIVIRLDAQSYEKLDEITVPGKVEVIPAVNMADTMERCGVSWPRVELTDDNVTLFESESTLTDVTKEQLKAMLIGYGEHMSGLLQAHRFEYYQAAGATPHRHFVFVNSVPDEIEVFGREGVDIWGGPGEFVVKPQYVTRI
# How the values were obtained:
# Experiment in all cases: glycan array binding signal (z-score within array); higher = stronger binding
# Settings in all cases: glycan notation: IUPAC condensed, linker removed
# [1] = target: Gal(a1-3)Gal(b1-4)GlcNAc
# Procedure, shortened: (§1)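 The Consortium for Functional Glycomics database supplied 3228 glycan arrays, of which those lacking an available protein sequence were dropped. The binding signal, a within-array Z-score, was averaged across arrays of the same protein sequence and across linkers. Negative scores can be read as non-binding.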
# [2] = target: Gal(a1-3)Gal(b1-4)GlcNAc(b1-2)Man
# Procedure, shortened: as §1
# [3] = target: Gal(a1-3)Gal(b1-4)GlcNAc(b1-2)Man(a1-3)[Gal(a1-3)Gal(b1-4)GlcNAc(b1-2)Man(a1-6)]Man(b1-4)GlcNAc(b1-4)GlcNAc
# Procedure, shortened: as §1
# [4] = target: Gal(a1-3)Gal(b1-4)GlcNAc(b1-3)GalNAc
# Procedure, shortened: as §1
# [5] = target: Gal(a1-3)Gal(b1-4)GlcNAc(b1-6)GalNAc
# Procedure, shortened: as §1
# [6] = target: Gal(a1-3)Gal(b1-4)[Fuc(a1-3)]GlcNAc
# Procedure, shortened: as §1
# [7] = target: Gal(a1-3)Gal(b1-4)[Fuc(a1-3)]GlcNAc(b1-2)Man(a1-3)[Gal(a1-3)Gal(b1-4)[Fuc(a1-3)]GlcNAc(b1-2)Man(a1-6)]Man(b1-4)GlcNAc(b1-4)GlcNAc
# Procedure, shortened: as §1
# [8] = target: Gal(a1-3)GalNAc
# Procedure, shortened: as §1
# [9] = target: Gal(a1-3)[Gal(a1-4)]Gal(b1-4)GlcNAc
# Procedure, shortened: as §1
# [10] = target: Gal(a1-4)Gal(b1-3)GlcNAc(b1-2)Man(a1-3)[Gal(a1-4)Gal(b1-3)GlcNAc(b1-2)Man(a1-6)]Man(b1-4)GlcNAc(b1-4)GlcNAc
# Procedure, shortened: as §1
# [11] = target: Gal(a1-4)Gal(b1-4)Glc
# Procedure, shortened: as §1
# [12] = target: Gal(a1-4)Gal(b1-4)GlcNAc
# Procedure, shortened: as §1
# [13] = target: Gal(a1-4)Gal(b1-4)GlcNAc(b1-2)Man(a1-3)[Gal(a1-4)Gal(b1-4)GlcNAc(b1-2)Man(a1-6)]Man(b1-4)GlcNAc(b1-4)GlcNAc
# Procedure, shortened: as §1
# [14] = target: Gal(a1-4)Gal(b1-4)GlcNAc(b1-3)Gal(b1-4)Glc
# Procedure, shortened: as §1
# [15] = target: Gal(a1-4)GlcNAc
# Procedure, shortened: as §1
# [16] = target: Gal(a1-6)Glc
# Procedure, shortened: as §1
# [17] = target: Gal(b1-2)Gal
# Procedure, shortened: as §1
# [18] = target: Gal(b1-3)Gal
# Procedure, shortened: as §1
# [19] = target: Gal(b1-3)Gal(b1-4)GlcNAc
# Procedure, shortened: as §1
# [20] = target: Gal(b1-3)GalNAc
# Procedure, shortened: as §1
# [21] = target: Gal(b1-3)GalNAc(a1-3)[Fuc(a1-2)]Gal(b1-4)Glc
# Procedure, shortened: as §1
# [22] = target: Gal(b1-3)GalNAc(a1-3)[Fuc(a1-2)]Gal(b1-4)GlcNAc
# Procedure, shortened: as §1
# [23] = target: Gal(b1-3)GalNAc(b1-3)Gal
# Procedure, shortened: as §1
# [24] = target: Gal(b1-3)GalNAc(b1-3)Gal(a1-4)Gal(b1-4)Glc
# Procedure, shortened: as §1
# [25] = target: Gal(b1-3)GalNAc(b1-4)Gal(b1-4)Glc
# Procedure, shortened: as §1
# [26] = target: Gal(b1-3)GalNAc(b1-4)[Neu5Ac(a2-3)]Gal(b1-4)Glc
# Procedure, shortened: as §1
# [27] = target: Gal(b1-3)GlcNAc
# Procedure, shortened: as §1
# [28] = target: Gal(b1-3)GlcNAc(a1-3)Gal(b1-4)GlcNAc
# Procedure, shortened: as §1
# [29] = target: Gal(b1-3)GlcNAc(a1-6)Gal(b1-4)GlcNAc
# Procedure, shortened: as §1
# [30] = target: Gal(b1-3)GlcNAc(b1-2)Man
# Procedure, shortened: as §1
# [31] = target: Gal(b1-3)GlcNAc(b1-2)Man(a1-3)[Gal(b1-3)GlcNAc(b1-2)Man(a1-6)]Man(b1-4)GlcNAc(b1-4)GlcNAc
# Procedure, shortened: as §1
# [32] = target: Gal(b1-3)GlcNAc(b1-2)Man(a1-3)[Gal(b1-3)GlcNAc(b1-2)Man(a1-6)]Man(b1-4)GlcNAc(b1-4)[Fuc(a1-6)]GlcNAc
# Procedure, shortened: as §1
# [33] = target: Gal(b1-3)GlcNAc(b1-2)Man(a1-3)[GlcNAc(b1-4)][Gal(b1-3)GlcNAc(b1-2)Man(a1-6)]Man(b1-4)GlcNAc(b1-4)GlcNAc
# Procedure, shortened: as §1
# [34] = target: Gal(b1-3)GlcNAc(b1-2)[Gal(b1-3)GlcNAc(b1-6)]Man(a1-6)[Gal(b1-3)GlcNAc(b1-2)Man(a1-3)]Man(b1-4)GlcNAc(b1-4)GlcNAc
# Procedure, shortened: as §1
# [35] = target: Gal(b1-3)GlcNAc(b1-3)Gal(b1-3)GlcNAc
# Procedure, shortened: as §1
# [36] = target: Gal(b1-3)GlcNAc(b1-3)Gal(b1-4)Glc
# Procedure, shortened: as §1
# [37] = target: Gal(b1-3)GlcNAc(b1-3)Gal(b1-4)GlcNAc
# Procedure, shortened: as §1
# [38] = target: Gal(b1-3)GlcNAc(b1-3)Gal(b1-4)GlcNAc(b1-2)Man(a1-3)[Gal(b1-3)GlcNAc(b1-3)Gal(b1-4)GlcNAc(b1-2)Man(a1-6)]Man(b1-4)GlcNAc(b1-4)GlcNAc
# Procedure, shortened: as §1
# [39] = target: Gal(b1-3)GlcNAc(b1-3)Gal(b1-4)GlcNAc(b1-2)[Gal(b1-3)GlcNAc(b1-3)Gal(b1-4)GlcNAc(b1-6)]Man(a1-6)[Gal(b1-3)GlcNAc(b1-3)Gal(b1-4)GlcNAc(b1-2)Man(a1-3)]Man(b1-4)GlcNAc(b1-4)[Fuc(a1-6)]GlcNAc
# Procedure, shortened: as §1
# [40] = target: Gal(b1-3)GlcNAc(b1-3)Gal(b1-4)GlcNAc(b1-3)Gal(b1-4)GlcNAc(b1-2)[Gal(b1-3)GlcNAc(b1-3)Gal(b1-4)GlcNAc(b1-3)Gal(b1-4)GlcNAc(b1-6)]Man(a1-6)[Gal(b1-3)GlcNAc(b1-3)Gal(b1-4)GlcNAc(b1-3)Gal(b1-4)GlcNAc(b1-2)Man(a1-3)]Man(b1-4)GlcNAc(b1-4)[Fuc(a1-6)]GlcNAc
# Procedure, shortened: as §1
# [41] = target: Gal(b1-3)GlcNAc(b1-3)Gal(b1-4)GlcNAc(b1-6)[Gal(b1-3)GlcNAc(b1-3)]Gal(b1-4)Glc
# Procedure, shortened: as §1
# [42] = target: Gal(b1-3)GlcNAc(b1-3)Gal(b1-4)[Fuc(a1-3)]GlcNAc
# Procedure, shortened: as §1
# [43] = target: Gal(b1-3)GlcNAc(b1-3)Gal(b1-4)[Fuc(a1-3)]GlcNAc(b1-6)[Gal(b1-3)GlcNAc(b1-3)]Gal(b1-4)Glc
# Procedure, shortened: as §1
# [44] = target: Gal(b1-3)GlcNAc(b1-3)GalNAc
# Procedure, shortened: as §1
# [45] = target: Gal(b1-3)GlcNAc(b1-6)Gal(b1-4)GlcNAc
# Procedure, shortened: as §1
binder,measurement,setting,value
B1,glycan array binding signal (z-score),[1],-0.277
same,glycan array binding signal (z-score),[2],-0.079
same,glycan array binding signal (z-score),[3],0.572
same,glycan array binding signal (z-score),[4],0.15
same,glycan array binding signal (z-score),[5],-0.032
same,glycan array binding signal (z-score),[6],0.092
same,glycan array binding signal (z-score),[7],2.17
same,glycan array binding signal (z-score),[8],-0.618
same,glycan array binding signal (z-score),[9],7.96
same,glycan array binding signal (z-score),[10],0.824
same,glycan array binding signal (z-score),[11],-0.529
same,glycan array binding signal (z-score),[12],-0.088
same,glycan array binding signal (z-score),[13],0.195
same,glycan array binding signal (z-score),[14],-0.943
same,glycan array binding signal (z-score),[15],-0.604
same,glycan array binding signal (z-score),[16],-1.13
same,glycan array binding signal (z-score),[17],0.362
same,glycan array binding signal (z-score),[18],-0.461
same,glycan array binding signal (z-score),[19],-0.18
same,glycan array binding signal (z-score),[20],-0.338
same,glycan array binding signal (z-score),[21],-0.022
same,glycan array binding signal (z-score),[22],0.084
same,glycan array binding signal (z-score),[23],-0.065
same,glycan array binding signal (z-score),[24],0.16
same,glycan array binding signal (z-score),[25],-0.385
same,glycan array binding signal (z-score),[26],-0.416
same,glycan array binding signal (z-score),[27],-0.445
same,glycan array binding signal (z-score),[28],-0.605
same,glycan array binding signal (z-score),[29],-0.428
same,glycan array binding signal (z-score),[30],-0.988
same,glycan array binding signal (z-score),[31],0.676
same,glycan array binding signal (z-score),[32],-0.835
same,glycan array binding signal (z-score),[33],0.808
same,glycan array binding signal (z-score),[34],4.93
same,glycan array binding signal (z-score),[35],-0.763
same,glycan array binding signal (z-score),[36],-0.857
same,glycan array binding signal (z-score),[37],-0.789
same,glycan array binding signal (z-score),[38],-0.509
same,glycan array binding signal (z-score),[39],-0.022
same,glycan array binding signal (z-score),[40],2.9
same,glycan array binding signal (z-score),[41],-0.801
same,glycan array binding signal (z-score),[42],-0.529
same,glycan array binding signal (z-score),[43],-0.847
same,glycan array binding signal (z-score),[44],-0.817
same,glycan array binding signal (z-score),[45],-0.475

# Reformatted with bars between the fields: part of the list above
binder | measurement | setting | value
B1 | glycan array binding signal (z-score) | [14] | -0.943
same | glycan array binding signal (z-score) | [15] | -0.604
same | glycan array binding signal (z-score) | [16] | -1.13
same | glycan array binding signal (z-score) | [17] | 0.362
same | glycan array binding signal (z-score) | [18] | -0.461
same | glycan array binding signal (z-score) | [19] | -0.18
same | glycan array binding signal (z-score) | [20] | -0.338
same | glycan array binding signal (z-score) | [21] | -0.022
same | glycan array binding signal (z-score) | [22] | 0.084
same | glycan array binding signal (z-score) | [23] | -0.065
